No constants are given. Whether binding was seen depends on the method and setting. In cells and extracts the contact can be indirect. Some results given as binding are weak or reduced against the parent protein; the word gives no strength.
Key:
[1] = target: C/EBPα (pig (endogenous in porcine pre-adipocytes)) (UniProt F1RNW6); assay: co-IP
[2] = target: FoxO1 (pig (endogenous in porcine pre-adipocytes)) (UniProt A4L7N3); assay: co-IP

The chains behind the UniProt entries cited, without tags or fusion partners.
UniProt F1RNW6: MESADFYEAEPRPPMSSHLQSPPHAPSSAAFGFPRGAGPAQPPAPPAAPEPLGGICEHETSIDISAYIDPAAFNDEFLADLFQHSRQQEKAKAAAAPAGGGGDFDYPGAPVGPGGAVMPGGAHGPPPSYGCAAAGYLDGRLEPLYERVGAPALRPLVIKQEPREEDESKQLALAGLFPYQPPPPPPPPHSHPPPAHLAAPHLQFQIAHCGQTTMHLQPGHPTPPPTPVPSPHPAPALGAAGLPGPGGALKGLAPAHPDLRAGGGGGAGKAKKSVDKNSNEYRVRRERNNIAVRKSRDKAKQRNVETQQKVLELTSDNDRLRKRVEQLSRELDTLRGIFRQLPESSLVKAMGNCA
UniProt A4L7N3: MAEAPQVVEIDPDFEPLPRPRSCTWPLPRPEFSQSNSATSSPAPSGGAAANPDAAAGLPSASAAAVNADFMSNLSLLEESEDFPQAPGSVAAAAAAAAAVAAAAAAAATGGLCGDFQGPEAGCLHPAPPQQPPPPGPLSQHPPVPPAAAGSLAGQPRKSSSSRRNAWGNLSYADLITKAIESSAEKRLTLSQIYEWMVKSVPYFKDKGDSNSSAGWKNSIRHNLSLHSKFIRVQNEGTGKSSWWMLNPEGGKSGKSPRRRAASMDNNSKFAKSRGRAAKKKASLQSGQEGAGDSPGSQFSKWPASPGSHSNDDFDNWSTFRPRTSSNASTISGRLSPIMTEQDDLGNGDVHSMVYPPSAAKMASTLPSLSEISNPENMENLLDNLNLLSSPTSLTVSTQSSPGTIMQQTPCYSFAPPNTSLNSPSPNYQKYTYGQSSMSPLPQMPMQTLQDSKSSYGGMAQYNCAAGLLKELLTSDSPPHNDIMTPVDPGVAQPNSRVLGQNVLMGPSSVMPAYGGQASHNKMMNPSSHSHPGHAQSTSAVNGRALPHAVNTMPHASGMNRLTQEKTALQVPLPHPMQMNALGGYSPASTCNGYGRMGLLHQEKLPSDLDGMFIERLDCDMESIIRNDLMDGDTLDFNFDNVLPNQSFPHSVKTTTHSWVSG

binding [1] | binding [2] | Substance
binds | – | FoxO1 (from UniProt A4L7N3 1-662)
– | binds | C/EBPα (from UniProt F1RNW6 1-354)

From doi:10.1101/2021.11.11.468339
